Results are given in words; binding and its absence hold for the method and conditions named. Binding seen in cells or lysates may run through a third protein.
Target: T1, Matrix Gla protein (human (endogenous in bone marrow MSCs)) (UniProt P08493)
T1 sequence: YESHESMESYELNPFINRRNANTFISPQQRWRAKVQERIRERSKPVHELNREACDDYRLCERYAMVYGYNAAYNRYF
Experiment: co-IP; MSCs lysates in IP lysis buffer with 1% PMSF and phosphatase inhibitor; incubated overnight at 4 °C with antibodies against APPL1, MGP, BMP2 or IgG controls; Dynabeads Protein G, 3 h at 4 °C; Western blot

B1: Adaptor protein, phosphotyrosine interacting with PH domain and leucine zipper 1 (protein, UniProt Q9UKG1 1-709)
chain: MPGIDKLPIEETLEDSPQTRSLLGVFEEDATAISNYMNQLYQAMHRIYDAQNELSAATHLTSKLLKEYEKQRFPLGGDDEVMSSTLQQFSKVIDELSSCHAVLSTQLADAMMFPITQFKERDLKEILTLKEVFQIASNDHDAAINRYSRLSKKRENDKVKYEVTEDVYTSRKKQHQTMMHYFCALNTLQYKKKIALLEPLLGYMQAQISFFKMGSENLNEQLEEFLANIGTSVQNVRREMDSDIETMQQTIEDLEVASDPLYVPDPDPTKFPVNRNLTRKAGYLNARNKTGLVSSTWDRQFYFTQGGNLMSQARGDVAGGLAMDIDNCSVMAVDCEDRRYCFQITSFDGKKSSILQAESKKDHEEWICTINNISKQIYLSENPEETAARVNQSALEAVTPSPSFQQRHESLRPAAGQSRPPTARTSSSGSLGSESTNLAALSLDSLVAPDTPIQFDIISPVCEDQPGQAKAFGQGGRRTNPFGESGGSTKSETEDSILHQLFIVRFLGSMEVKSDDHPDVVYETMRQILAARAIHNIFRMTESHLLVTCDCLKLIDPQTQVTRLTFPLPCVVLYATHQENKRLFGFVLRTSSGRSESNLSSVCYIFESNNEGEKICDSVGLAKQIALHAELDRRASEKQKEIERVKEKQQKELNKQKQIEKDLEEQSRLIAASSRPNQASSEGQFVVLSSSQSEESDLGEGGKKRESEA
binding: no binding
